Laboratory results as given in article PMC5923425, “Structural analysis of human ARS2 as a platform for co-transcriptional RNA sorting” (Nature Communications, 2018).
Results are given in words; binding and its absence hold for the method and conditions named. In cells and extracts the contact can be indirect. These calls come from enrichment with a bait or labelling near it, and not all partners need be listed. Tags and fused reporters may be left off the sequences shown.

By UniProt entry, the sequences of proteins in these tests, tags left out.
UniProt Q9Y580: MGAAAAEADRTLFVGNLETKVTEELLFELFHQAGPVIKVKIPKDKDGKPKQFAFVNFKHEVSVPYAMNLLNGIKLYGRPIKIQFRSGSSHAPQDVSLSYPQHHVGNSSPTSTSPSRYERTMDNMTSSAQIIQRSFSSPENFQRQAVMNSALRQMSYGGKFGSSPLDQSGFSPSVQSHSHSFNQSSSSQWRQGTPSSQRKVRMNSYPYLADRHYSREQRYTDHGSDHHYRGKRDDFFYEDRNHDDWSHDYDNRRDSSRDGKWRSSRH
UniProt Q06265: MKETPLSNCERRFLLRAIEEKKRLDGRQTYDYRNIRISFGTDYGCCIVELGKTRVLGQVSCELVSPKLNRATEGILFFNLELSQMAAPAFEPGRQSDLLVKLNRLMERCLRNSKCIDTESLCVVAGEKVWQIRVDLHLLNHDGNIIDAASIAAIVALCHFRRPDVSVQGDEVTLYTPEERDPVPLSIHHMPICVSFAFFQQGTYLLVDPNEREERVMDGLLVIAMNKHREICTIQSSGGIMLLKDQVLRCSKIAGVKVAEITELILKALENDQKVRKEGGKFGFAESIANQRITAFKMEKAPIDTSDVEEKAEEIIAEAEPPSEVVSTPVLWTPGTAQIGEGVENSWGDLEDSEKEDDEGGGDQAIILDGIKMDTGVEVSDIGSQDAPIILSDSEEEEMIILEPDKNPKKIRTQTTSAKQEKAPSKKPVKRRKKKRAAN
UniProt Q6NZY4: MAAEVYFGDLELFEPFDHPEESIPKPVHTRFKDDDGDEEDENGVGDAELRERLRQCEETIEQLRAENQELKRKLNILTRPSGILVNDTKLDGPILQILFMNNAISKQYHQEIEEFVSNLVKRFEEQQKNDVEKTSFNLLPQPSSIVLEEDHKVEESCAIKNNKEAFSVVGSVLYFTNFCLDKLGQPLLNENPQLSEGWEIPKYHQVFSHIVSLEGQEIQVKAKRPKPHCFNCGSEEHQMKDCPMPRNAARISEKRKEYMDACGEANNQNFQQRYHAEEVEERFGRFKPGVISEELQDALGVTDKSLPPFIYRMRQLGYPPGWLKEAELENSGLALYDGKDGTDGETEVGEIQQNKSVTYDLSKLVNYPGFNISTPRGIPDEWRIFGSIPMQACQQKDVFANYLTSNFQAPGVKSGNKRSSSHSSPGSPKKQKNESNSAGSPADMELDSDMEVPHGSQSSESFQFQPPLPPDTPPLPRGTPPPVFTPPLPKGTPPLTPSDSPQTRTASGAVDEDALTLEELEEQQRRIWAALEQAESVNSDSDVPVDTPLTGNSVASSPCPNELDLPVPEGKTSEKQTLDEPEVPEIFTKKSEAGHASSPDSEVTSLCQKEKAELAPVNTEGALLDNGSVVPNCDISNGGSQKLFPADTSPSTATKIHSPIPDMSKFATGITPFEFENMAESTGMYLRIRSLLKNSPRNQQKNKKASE
UniProt Q5TA45: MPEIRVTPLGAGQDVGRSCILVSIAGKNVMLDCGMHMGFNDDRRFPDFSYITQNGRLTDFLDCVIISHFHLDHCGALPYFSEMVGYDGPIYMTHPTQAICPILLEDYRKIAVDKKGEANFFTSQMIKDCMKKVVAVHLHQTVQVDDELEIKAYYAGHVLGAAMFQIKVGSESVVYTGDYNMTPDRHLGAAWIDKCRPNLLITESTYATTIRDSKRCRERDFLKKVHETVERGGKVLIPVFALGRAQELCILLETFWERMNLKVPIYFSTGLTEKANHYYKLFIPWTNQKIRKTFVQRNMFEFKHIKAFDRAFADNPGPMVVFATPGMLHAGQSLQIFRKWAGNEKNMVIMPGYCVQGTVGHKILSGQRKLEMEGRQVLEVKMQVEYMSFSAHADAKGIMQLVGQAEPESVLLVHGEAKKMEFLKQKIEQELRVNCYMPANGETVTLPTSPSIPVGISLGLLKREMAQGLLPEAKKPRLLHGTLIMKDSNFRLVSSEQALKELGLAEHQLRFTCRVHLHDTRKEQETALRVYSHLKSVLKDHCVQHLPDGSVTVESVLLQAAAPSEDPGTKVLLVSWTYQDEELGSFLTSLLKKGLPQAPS
UniProt Q16630: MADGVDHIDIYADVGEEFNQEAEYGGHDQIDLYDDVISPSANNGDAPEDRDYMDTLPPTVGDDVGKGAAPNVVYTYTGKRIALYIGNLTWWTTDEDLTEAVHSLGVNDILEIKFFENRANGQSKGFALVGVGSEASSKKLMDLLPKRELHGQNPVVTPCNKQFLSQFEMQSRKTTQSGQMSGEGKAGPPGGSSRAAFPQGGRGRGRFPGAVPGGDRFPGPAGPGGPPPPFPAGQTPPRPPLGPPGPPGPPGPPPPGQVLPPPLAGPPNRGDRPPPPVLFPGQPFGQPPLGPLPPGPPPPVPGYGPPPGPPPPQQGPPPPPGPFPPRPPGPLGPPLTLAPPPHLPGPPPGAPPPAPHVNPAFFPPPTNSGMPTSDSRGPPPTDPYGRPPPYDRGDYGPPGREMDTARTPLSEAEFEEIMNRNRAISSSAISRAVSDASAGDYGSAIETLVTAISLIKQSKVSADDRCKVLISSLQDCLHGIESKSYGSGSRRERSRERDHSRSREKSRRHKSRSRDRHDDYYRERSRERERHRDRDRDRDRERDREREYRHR
UniProt O60293: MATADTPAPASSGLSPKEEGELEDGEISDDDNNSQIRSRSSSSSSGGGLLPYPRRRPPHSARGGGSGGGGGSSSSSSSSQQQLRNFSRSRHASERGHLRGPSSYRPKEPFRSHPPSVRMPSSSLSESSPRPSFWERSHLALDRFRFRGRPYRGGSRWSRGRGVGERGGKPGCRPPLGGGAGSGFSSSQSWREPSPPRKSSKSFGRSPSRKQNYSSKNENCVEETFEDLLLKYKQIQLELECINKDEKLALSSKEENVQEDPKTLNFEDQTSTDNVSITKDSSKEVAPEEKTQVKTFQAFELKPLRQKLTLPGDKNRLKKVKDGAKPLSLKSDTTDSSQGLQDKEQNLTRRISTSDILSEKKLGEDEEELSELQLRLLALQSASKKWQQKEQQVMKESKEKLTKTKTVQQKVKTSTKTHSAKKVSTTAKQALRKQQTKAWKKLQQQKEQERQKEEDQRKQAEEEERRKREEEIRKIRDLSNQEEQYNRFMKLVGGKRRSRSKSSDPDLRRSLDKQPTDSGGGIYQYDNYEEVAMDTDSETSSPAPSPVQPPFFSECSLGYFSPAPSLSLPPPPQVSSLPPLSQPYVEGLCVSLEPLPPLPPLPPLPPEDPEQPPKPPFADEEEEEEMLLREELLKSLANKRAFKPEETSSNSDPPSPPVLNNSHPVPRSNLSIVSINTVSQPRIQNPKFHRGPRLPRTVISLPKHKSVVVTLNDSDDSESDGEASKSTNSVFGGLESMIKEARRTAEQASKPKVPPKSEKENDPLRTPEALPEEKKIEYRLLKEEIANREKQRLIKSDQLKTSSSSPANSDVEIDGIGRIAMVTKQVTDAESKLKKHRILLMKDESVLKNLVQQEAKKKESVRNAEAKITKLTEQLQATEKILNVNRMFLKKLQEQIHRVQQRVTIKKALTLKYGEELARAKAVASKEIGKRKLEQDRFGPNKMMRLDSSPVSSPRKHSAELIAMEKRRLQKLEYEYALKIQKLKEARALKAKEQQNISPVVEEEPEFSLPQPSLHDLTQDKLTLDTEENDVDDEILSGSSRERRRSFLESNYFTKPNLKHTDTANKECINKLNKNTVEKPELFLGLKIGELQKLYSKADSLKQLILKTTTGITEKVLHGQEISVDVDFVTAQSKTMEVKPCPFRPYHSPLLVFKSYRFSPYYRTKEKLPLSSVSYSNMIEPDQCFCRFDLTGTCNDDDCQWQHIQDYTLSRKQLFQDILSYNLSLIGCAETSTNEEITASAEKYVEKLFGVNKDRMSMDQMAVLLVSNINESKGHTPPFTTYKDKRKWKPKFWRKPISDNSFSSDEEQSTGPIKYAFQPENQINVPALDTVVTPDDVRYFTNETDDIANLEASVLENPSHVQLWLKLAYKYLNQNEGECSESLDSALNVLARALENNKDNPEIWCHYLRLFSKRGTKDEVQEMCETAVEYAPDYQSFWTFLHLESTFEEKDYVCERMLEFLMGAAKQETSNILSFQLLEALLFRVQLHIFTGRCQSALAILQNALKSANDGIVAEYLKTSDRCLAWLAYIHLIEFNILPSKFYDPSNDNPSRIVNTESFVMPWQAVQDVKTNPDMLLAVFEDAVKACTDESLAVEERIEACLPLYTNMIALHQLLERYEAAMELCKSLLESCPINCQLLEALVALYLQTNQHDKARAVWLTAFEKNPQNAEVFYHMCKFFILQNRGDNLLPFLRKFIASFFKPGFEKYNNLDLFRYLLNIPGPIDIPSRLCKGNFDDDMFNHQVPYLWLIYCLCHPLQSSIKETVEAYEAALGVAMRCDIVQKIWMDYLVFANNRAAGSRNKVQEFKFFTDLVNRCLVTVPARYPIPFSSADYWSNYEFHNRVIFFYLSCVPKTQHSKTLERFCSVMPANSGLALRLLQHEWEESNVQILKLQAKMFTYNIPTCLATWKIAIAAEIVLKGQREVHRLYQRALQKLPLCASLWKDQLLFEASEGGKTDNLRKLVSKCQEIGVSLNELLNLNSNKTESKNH

T1: EGFP–ARS2 wt (human) (UniProt Q9BXP5)
T1 sequence: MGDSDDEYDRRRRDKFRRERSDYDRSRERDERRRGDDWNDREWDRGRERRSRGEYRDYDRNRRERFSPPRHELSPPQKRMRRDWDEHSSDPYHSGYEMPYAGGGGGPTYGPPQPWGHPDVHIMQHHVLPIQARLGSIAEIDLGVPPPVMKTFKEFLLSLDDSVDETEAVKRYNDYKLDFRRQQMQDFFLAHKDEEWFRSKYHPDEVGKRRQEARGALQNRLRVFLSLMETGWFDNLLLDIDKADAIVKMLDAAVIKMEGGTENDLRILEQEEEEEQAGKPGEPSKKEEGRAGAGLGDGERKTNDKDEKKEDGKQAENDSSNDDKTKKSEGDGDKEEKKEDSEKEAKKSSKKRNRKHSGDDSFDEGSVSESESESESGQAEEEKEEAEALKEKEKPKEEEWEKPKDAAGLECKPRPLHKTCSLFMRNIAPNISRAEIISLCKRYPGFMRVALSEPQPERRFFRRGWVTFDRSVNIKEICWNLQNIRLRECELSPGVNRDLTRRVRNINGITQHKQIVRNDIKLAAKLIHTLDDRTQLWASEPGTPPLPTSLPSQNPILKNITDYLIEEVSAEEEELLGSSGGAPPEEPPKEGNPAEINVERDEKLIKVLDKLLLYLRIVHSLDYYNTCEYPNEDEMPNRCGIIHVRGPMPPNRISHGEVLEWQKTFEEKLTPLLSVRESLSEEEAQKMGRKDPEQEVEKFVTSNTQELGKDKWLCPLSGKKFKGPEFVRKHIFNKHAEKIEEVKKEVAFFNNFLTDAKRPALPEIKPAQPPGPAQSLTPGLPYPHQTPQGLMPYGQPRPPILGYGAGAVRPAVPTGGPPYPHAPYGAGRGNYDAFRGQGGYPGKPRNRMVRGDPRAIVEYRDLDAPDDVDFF

B1: EXOSC10 (protein, UniProt Q01780 1-885)
chain: MAPPSTREPRVLSATSATKSDGEMVLPGFPDADSFVKFALGSVVAVTKASGGLPQFGDEYDFYRSFPGFQAFCETQGDRLLQCMSRVMQYHGCRSNIKDRSKVTELEDKFDLLVDANDVILERVGILLDEASGVNKNQQPVLPAGLQVPKTVVSSWNRKAAEYGKKAKSETFRLLHAKNIIRPQLKFREKIDNSNTPFLPKIFIKPNAQKPLPQALSKERRERPQDRPEDLDVPPALADFIHQQRTQQVEQDMFAHPYQYELNHFTPADAVLQKPQPQLYRPIEETPCHFISSLDELVELNEKLLNCQEFAVDLEHHSYRSFLGLTCLMQISTRTEDFIIDTLELRSDMYILNESLTDPAIVKVFHGADSDIEWLQKDFGLYVVNMFDTHQAARLLNLGRHSLDHLLKLYCNVDSNKQYQLADWRIRPLPEEMLSYARDDTHYLLYIYDKMRLEMWERGNGQPVQLQVVWQRSRDICLKKFIKPIFTDESYLELYRKQKKHLNTQQLTAFQLLFAWRDKTARREDESYGYVLPNHMMLKIAEELPKEPQGIIACCNPVPPLVRQQINEMHLLIQQAREMPLLKSEVAAGVKKSGPLPSAERLENVLFGPHDCSHAPPDGYPIIPTSGSVPVQKQASLFPDEKEDNLLGTTCLIATAVITLFNEPSAEDSKKGPLTVAQKKAQNIMESFENPFRMFLPSLGHRAPVSQAAKFDPSTKIYEISNRWKLAQVQVQKDSKEAVKKKAAEQTAAREQAKEACKAAAEQAISVRQQVVLENAAKKRERATSDPRTTEQKQEKKRLKISKKPKDPEPPEKEFTPYDYSQSDFKAFAGNSKSKVSSQFDPNKQTPSGKKCIAAKKIKQSVGNKSMSFPTGKSDRGFRYNWPQR
B2: PABPN1 (protein, UniProt Q86U42 1-306)
chain: MAAAAAAAAAAGAAGGRGSGPGRRRHLVPGAGGEAGEGAPGGAGDYGNGLESEELEPEELLLEPEPEPEPEEEPPRPRAPPGAPGPGPGSGAPGSQEEEEEPGLVEGDPGDGAIEDPELEAIKARVREMEEEAEKLKELQNEVEKQMNMSPPPGNAGPVIMSIEEKMEADARSIYVGNVDYGATAEELEAHFHGCGSVNRVTILCDKFSGHPKGFAYIEFSDKESVRTSLALDESLFRGRQIKVIPKRTNRPGISTTDRGFPRARYRARTTNYNSSRSRFYSGFNSRPRGRVYRGRARATSWYSPY
B3: THRAP3 (protein, UniProt Q9Y2W1 1-955)
chain: MSKTNKSKSGSRSSRSRSASRSRSRSFSKSRSRSRSLSRSRKRRLSSRSRSRSYSPAHNRERNHPRVYQNRDFRGHNRGYRRPYYFRGRNRGFYPWGQYNRGGYGNYRSNWQNYRQAYSPRRGRSRSRSPKRRSPSPRSRSHSRNSDKSSSDRSRRSSSSRSSSNHSRVESSKRKSAKEKKSSSKDSRPSQAAGDNQGDEAKEQTFSGGTSQDTKASESSKPWPDATYGTGSASRASAVSELSPRERSPALKSPLQSVVVRRRSPRPSPVPKPSPPLSSTSQMGSTLPSGAGYQSGTHQGQFDHGSGSLSPSKKSPVGKSPPSTGSTYGSSQKEESAASGGAAYTKRYLEEQKTENGKDKEQKQTNTDKEKIKEKGSFSDTGLGDGKMKSDSFAPKTDSEKPFRGSQSPKRYKLRDDFEKKMADFHKEEMDDQDKDKAKGRKESEFDDEPKFMSKVIGANKNQEEEKSGKWEGLVYAPPGKEKQRKTEELEEESFPERSKKEDRGKRSEGGHRGFVPEKNFRVTAYKAVQEKSSSPPPRKTSESRDKLGAKGDFPTGKSSFSITREAQVNVRMDSFDEDLARPSGLLAQERKLCRDLVHSNKKEQEFRSIFQHIQSAQSQRSPSELFAQHIVTIVHHVKEHHFGSSGMTLHERFTKYLKRGTEQEAAKNKKSPEIHRRIDISPSTFRKHGLAHDEMKSPREPGYKAEGKYKDDPVDLRLDIERRKKHKERDLKRGKSRESVDSRDSSHSRERSAEKTEKTHKGSKKQKKHRRARDRSRSSSSSSQSSHSYKAEEYTEETEEREESTTGFDKSRLGTKDFVGPSERGGGRARGTFQFRARGRGWGRGNYSGNNNNNSNNDFQKRNREEEWDPEYTPKSKKYYLHDDREGEGSDKWVSRGRGRGAFPRGRGRFMFRKSSTSPKWAHDKFSGEEGEIEDDESGTENREEKDNIQPTTE

Molecular target: T1, EGFP–ARS2 wt (human)
Assay: affinity purification with mass spectrometry; EGFP-tagged ARS2 constructs expressed in HEK 293T/17, lysis in 20 mM HEPES pH 7.4, 120 mM NaCl, 0.1% Triton X-100 with RNase H, GFP-Trap beads, TMT labelling, LC–MS/MS; controls EGFP and pcDNA3.1

binding	Molecule
binds	RBM7 (from UniProt Q9Y580 1-266)
binds	EXOSC9 (from UniProt Q06265 1-439)
binds	ZCCHC8 (from UniProt Q6NZY4 1-707)
binds	CPSF3L (from UniProt Q5TA45 1-600)
binds	CPSF6 (from UniProt Q16630 1-551)
binds	ZFC3H1 (from UniProt O60293 1-1989)
binds	B1
binds	B2
binds	B3
